Data on four molecules can be found in publication PMC2279262.

Assay in all cases: co-IP; CHO cells co-transfected with WT or mutant CD81-EGFP and CD9P-1 or EWI-2; lysed after 48 h in 30 mM Tris pH 7.4, 150 mM NaCl, 1% digitonin; immunoprecipitation with antibodies against CD81 (1D6), CD9P-1 and EWI-2; blots with biotin-labelled mAbs TS81, 1F11 and 8A12
For one test, the target named is T1, EWI-2 (UniProt Q969P0).
T1 sequence: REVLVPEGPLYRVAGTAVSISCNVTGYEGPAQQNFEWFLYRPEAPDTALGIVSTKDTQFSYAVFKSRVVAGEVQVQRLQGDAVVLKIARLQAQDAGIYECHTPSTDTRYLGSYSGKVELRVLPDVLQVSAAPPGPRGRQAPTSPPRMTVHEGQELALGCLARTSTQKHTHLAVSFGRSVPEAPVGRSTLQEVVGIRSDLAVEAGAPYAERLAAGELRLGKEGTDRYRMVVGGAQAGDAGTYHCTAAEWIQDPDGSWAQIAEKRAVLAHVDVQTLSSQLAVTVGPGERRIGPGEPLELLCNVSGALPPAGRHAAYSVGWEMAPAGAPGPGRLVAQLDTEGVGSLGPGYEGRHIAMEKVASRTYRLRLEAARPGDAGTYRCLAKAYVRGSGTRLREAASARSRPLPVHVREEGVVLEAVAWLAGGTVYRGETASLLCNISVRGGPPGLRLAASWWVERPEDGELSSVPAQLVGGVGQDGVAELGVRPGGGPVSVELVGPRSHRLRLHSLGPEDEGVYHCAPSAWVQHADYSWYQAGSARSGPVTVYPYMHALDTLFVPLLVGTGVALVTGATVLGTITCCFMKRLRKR

Another test has as its target T2, CD9P-1 (UniProt Q9P2B2).
T2 sequence: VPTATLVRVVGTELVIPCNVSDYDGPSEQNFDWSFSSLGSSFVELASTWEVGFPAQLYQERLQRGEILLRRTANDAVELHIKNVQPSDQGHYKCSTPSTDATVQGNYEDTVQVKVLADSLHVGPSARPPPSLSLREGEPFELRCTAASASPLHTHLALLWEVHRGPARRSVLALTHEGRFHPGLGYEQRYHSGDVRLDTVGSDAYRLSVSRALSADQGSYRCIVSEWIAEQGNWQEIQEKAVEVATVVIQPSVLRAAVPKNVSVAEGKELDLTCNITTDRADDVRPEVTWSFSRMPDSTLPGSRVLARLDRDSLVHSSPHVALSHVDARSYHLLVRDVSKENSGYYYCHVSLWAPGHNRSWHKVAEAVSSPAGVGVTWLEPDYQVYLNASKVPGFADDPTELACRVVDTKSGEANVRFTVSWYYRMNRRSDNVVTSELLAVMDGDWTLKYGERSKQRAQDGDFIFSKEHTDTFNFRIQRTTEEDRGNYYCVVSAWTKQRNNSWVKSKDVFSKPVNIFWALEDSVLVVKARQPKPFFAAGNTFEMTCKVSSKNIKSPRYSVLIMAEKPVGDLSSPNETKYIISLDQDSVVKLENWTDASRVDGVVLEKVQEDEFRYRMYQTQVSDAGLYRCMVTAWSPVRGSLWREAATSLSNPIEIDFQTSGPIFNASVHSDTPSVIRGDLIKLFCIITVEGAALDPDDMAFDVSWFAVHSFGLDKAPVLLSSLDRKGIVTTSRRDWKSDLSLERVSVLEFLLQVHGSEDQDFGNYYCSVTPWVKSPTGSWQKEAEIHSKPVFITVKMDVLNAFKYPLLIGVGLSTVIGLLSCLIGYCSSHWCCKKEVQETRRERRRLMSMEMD

For test [1], the target named is T3, CD81 DDD (137–139)→AAA mutant in fusion with EGFP (human) (UniProt P60033).
T3 sequence: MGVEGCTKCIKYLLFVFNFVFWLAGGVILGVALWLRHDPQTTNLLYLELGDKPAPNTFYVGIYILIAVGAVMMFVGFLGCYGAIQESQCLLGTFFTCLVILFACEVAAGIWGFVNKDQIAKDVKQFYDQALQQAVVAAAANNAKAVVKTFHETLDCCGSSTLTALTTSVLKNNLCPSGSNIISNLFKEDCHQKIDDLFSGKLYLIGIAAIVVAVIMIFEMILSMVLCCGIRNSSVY

The target in test [2] is T4, CD81 VVD (135–137)→AAA mutant in fusion with EGFP (human) (UniProt P60033).
T4 sequence: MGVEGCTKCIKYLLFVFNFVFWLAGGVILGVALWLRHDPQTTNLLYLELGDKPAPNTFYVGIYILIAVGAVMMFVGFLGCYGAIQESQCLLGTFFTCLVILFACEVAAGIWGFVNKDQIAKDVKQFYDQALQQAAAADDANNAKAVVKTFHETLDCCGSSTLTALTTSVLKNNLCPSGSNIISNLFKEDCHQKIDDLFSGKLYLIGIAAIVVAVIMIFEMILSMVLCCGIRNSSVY

Test [3] deals with T5, WT CD81 in fusion with EGFP (human) (UniProt P60033).
T5 sequence: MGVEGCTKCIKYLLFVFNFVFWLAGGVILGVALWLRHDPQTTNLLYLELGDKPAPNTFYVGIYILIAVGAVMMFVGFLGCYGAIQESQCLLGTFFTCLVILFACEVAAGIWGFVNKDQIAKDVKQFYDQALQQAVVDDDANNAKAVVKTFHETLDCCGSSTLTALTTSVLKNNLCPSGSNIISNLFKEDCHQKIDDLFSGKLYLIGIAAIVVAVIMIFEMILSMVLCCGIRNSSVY

No constants are given. Whether binding was seen depends on the method and setting. Binding seen in cells or lysates may run through a third protein. Some binding calls cover weakened binding; strength is not graded here. Sequences can lack the tags named with a protein.

B1: CD81 DDD (137–139)→AAA mutant in fusion with EGFP (protein, UniProt P60033 1-236)
chain: MGVEGCTKCIKYLLFVFNFVFWLAGGVILGVALWLRHDPQTTNLLYLELGDKPAPNTFYVGIYILIAVGAVMMFVGFLGCYGAIQESQCLLGTFFTCLVILFACEVAAGIWGFVNKDQIAKDVKQFYDQALQQAVVAAAANNAKAVVKTFHETLDCCGSSTLTALTTSVLKNNLCPSGSNIISNLFKEDCHQKIDDLFSGKLYLIGIAAIVVAVIMIFEMILSMVLCCGIRNSSVY
For B1, the binding entry in the test with EWI-2 and with CD9P-1 was “binds” each time.

B2: CD81 VVD (135–137)→AAA mutant in fusion with EGFP (protein, UniProt P60033 1-236)
chain: MGVEGCTKCIKYLLFVFNFVFWLAGGVILGVALWLRHDPQTTNLLYLELGDKPAPNTFYVGIYILIAVGAVMMFVGFLGCYGAIQESQCLLGTFFTCLVILFACEVAAGIWGFVNKDQIAKDVKQFYDQALQQAAAADDANNAKAVVKTFHETLDCCGSSTLTALTTSVLKNNLCPSGSNIISNLFKEDCHQKIDDLFSGKLYLIGIAAIVVAVIMIFEMILSMVLCCGIRNSSVY
On to B2, for which the binding entry with EWI-2 and with CD9P-1 was “binds” in each case.

B3: EWI-2 (protein, UniProt Q969P0 28-613)
chain: REVLVPEGPLYRVAGTAVSISCNVTGYEGPAQQNFEWFLYRPEAPDTALGIVSTKDTQFSYAVFKSRVVAGEVQVQRLQGDAVVLKIARLQAQDAGIYECHTPSTDTRYLGSYSGKVELRVLPDVLQVSAAPPGPRGRQAPTSPPRMTVHEGQELALGCLARTSTQKHTHLAVSFGRSVPEAPVGRSTLQEVVGIRSDLAVEAGAPYAERLAAGELRLGKEGTDRYRMVVGGAQAGDAGTYHCTAAEWIQDPDGSWAQIAEKRAVLAHVDVQTLSSQLAVTVGPGERRIGPGEPLELLCNVSGALPPAGRHAAYSVGWEMAPAGAPGPGRLVAQLDTEGVGSLGPGYEGRHIAMEKVASRTYRLRLEAARPGDAGTYRCLAKAYVRGSGTRLREAASARSRPLPVHVREEGVVLEAVAWLAGGTVYRGETASLLCNISVRGGPPGLRLAASWWVERPEDGELSSVPAQLVGGVGQDGVAELGVRPGGGPVSVELVGPRSHRLRLHSLGPEDEGVYHCAPSAWVQHADYSWYQAGSARSGPVTVYPYMHALDTLFVPLLVGTGVALVTGATVLGTITCCFMKRLRKR
Turning to B3, the binding result in test [1], in test [2] and in test [3] was “binds” each time.

B4: CD9P-1 (protein, UniProt Q9P2B2 26-879)
chain: VPTATLVRVVGTELVIPCNVSDYDGPSEQNFDWSFSSLGSSFVELASTWEVGFPAQLYQERLQRGEILLRRTANDAVELHIKNVQPSDQGHYKCSTPSTDATVQGNYEDTVQVKVLADSLHVGPSARPPPSLSLREGEPFELRCTAASASPLHTHLALLWEVHRGPARRSVLALTHEGRFHPGLGYEQRYHSGDVRLDTVGSDAYRLSVSRALSADQGSYRCIVSEWIAEQGNWQEIQEKAVEVATVVIQPSVLRAAVPKNVSVAEGKELDLTCNITTDRADDVRPEVTWSFSRMPDSTLPGSRVLARLDRDSLVHSSPHVALSHVDARSYHLLVRDVSKENSGYYYCHVSLWAPGHNRSWHKVAEAVSSPAGVGVTWLEPDYQVYLNASKVPGFADDPTELACRVVDTKSGEANVRFTVSWYYRMNRRSDNVVTSELLAVMDGDWTLKYGERSKQRAQDGDFIFSKEHTDTFNFRIQRTTEEDRGNYYCVVSAWTKQRNNSWVKSKDVFSKPVNIFWALEDSVLVVKARQPKPFFAAGNTFEMTCKVSSKNIKSPRYSVLIMAEKPVGDLSSPNETKYIISLDQDSVVKLENWTDASRVDGVVLEKVQEDEFRYRMYQTQVSDAGLYRCMVTAWSPVRGSLWREAATSLSNPIEIDFQTSGPIFNASVHSDTPSVIRGDLIKLFCIITVEGAALDPDDMAFDVSWFAVHSFGLDKAPVLLSSLDRKGIVTTSRRDWKSDLSLERVSVLEFLLQVHGSEDQDFGNYYCSVTPWVKSPTGSWQKEAEIHSKPVFITVKMDVLNAFKYPLLIGVGLSTVIGLLSCLIGYCSSHWCCKKEVQETRRERRRLMSMEMD
As for B4, the binding entry in test [1], in test [2] and in test [3] was “binds” throughout.
